# Library screen at single concentrations

From ChEMBL document CHEMBL3988442, “University of Dundee, Small-Polar-MMV Screening Library” (2021).

Toxoplasma: 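Assay of Toxoplasma gondii numbers, read through their beta-galactosidase reporter with a colour substrate. Compounds at 10 µM. Higher reads as fewer parasites (inferred from which compounds were picked for retests). Of about 67,000 compounds tested this way, about 260 (0.38%) reached 50% or more in at least one test.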
Leishmania in macrophages: 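Cell assay of Leishmania donovani living inside macrophages; the read-out is not stated. Tested at 30 µM. Direction is inferred from retests: higher values go with stronger inhibition. Of about 69,000 compounds tested this way, about 1,000 (1.5%) reached 50% or more in at least one test.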

Values are the deposited “Percent Effect”, in %.
How 0% and 100% were set is not recorded. Most values in the screen are low, and negative values occur.
The compounds are a random part of those screened.
Two or more numbers in one place are separate tests of the same structure; such repeats can differ widely.

{"compound": "O=C(Cc1ccccc1)N1CCN(CC(O)c2ccc(F)cc2)CC1", "stereo": "centres undefined", "Toxoplasma": -3.925, "Leishmania in macrophages": 27.58}
{"compound": "O=C(c1ccoc1)N1CCC(NCc2ccccc2-n2ccnc2)CC1", "Toxoplasma": -37.59, "Leishmania in macrophages": -7.199}
{"compound": "CC(=O)N(C)c1nc(CN2CCN(c3nccs3)CC2)cs1", "Toxoplasma": 17.51, "Leishmania in macrophages": 8.092}
{"compound": "CCCc1cncnc1N1CCC2(CCC(=O)N(CCOC)C2)CC1", "Toxoplasma": -22, "Leishmania in macrophages": -1.489}
{"compound": "Cc1nc(CNC(=O)NC2CCN(c3ncccn3)CC2)cs1", "Toxoplasma": -31.27, "Leishmania in macrophages": 37.15}
{"compound": "Cc1csc(NC(=O)c2cccnc2N2CCOCC2)n1", "Toxoplasma": 11.77, "Leishmania in macrophages": 0.9699}
{"compound": "CCCNC(c1ccc(F)cc1)c1cccnc1.Cl.Cl", "stereo": "centres undefined", "Toxoplasma": -22.54, "Leishmania in macrophages": -13.78}
{"compound": "Cc1ccc(-c2noc(C3CCN3C(=O)c3c(C)noc3C)n2)s1", "stereo": "centres undefined", "Toxoplasma": 12.82, "Leishmania in macrophages": 19.43}
{"compound": "COc1cc(-c2nc(CN(CCO)CCO)c(C)o2)ccc1F", "Toxoplasma": 26.9, "Leishmania in macrophages": 36.76}
{"compound": "Cc1ccc(C(C)N(C)Cc2nc3c(cnn3C)c(=O)[nH]2)cc1", "stereo": "centres undefined", "Toxoplasma": 5.924, "Leishmania in macrophages": 40.81}
{"compound": "OCC1CCCN1c1cc(NCc2cccc3cccnc23)ncn1", "stereo": "centres undefined", "Toxoplasma": 17.66, "Leishmania in macrophages": 5.761}
{"compound": "CCCN1CCC(N2CCC(Cn3cc(C4CC4)nn3)CC2)CC1", "Toxoplasma": -4.522, "Leishmania in macrophages": 37.74}
{"compound": "CCC(C)(C)NC(=O)c1ccc(-c2ccco2)[nH]c1=O", "Toxoplasma": -6.558, "Leishmania in macrophages": 8.996}
{"compound": "CCOCC(=O)NCCc1nc(C)cc(C(F)(F)F)n1", "Toxoplasma": -6.673, "Leishmania in macrophages": -29.08}
{"compound": "Cc1cnn(Cc2ccc(NC(=O)N3CCCC3)cc2)c1", "Toxoplasma": 3.293, "Leishmania in macrophages": 24.05}
{"compound": "CCOC(=O)c1sc2ccsc2c1CN.Cl", "Toxoplasma": 1.292, "Leishmania in macrophages": -15.3}
{"compound": "CC(C)OCCC1CCCCN1S(=O)(=O)c1cnn(C)c1", "stereo": "centres undefined", "Toxoplasma": 6.321, "Leishmania in macrophages": 5.33}
{"compound": "CNC(=O)c1cccc(CNC2CCCSc3ccccc32)c1", "stereo": "centres undefined", "Toxoplasma": 3.093, "Leishmania in macrophages": 13.81}
{"compound": "CC(C)CC(N)C1=N/C(=C2\\N=CN=N2)NO1", "stereo": "centres undefined", "Toxoplasma": -4.334, "Leishmania in macrophages": -16.12}
{"compound": "O=C(Nc1cnc2n1CCCC2)c1cccc(OCC(F)(F)F)c1", "Toxoplasma": 7.173, "Leishmania in macrophages": -35.7}
{"compound": "NC(=O)C1(c2cnccn2)CCCN1Cc1ccc(Cl)c(F)c1", "stereo": "centres undefined", "Toxoplasma": 6.472, "Leishmania in macrophages": "-11.19 and 6.805"}
{"compound": "CCOCc1nn(C)c2c1CN(C(=O)c1ccno1)CC2", "Toxoplasma": 21.92, "Leishmania in macrophages": "7.334 and 14.78"}
{"compound": "CCc1nc(NS(=O)(=O)c2cc(C)ccc2Br)no1", "Toxoplasma": 2.398, "Leishmania in macrophages": 16.62}

The last 2 entries again:

compound,Toxoplasma,Leishmania in macrophages
CCOCc1nn(C)c2c1CN(C(=O)c1ccno1)CC2,21.92,7.334 and 14.78
CCc1nc(NS(=O)(=O)c2cc(C)ccc2Br)no1,2.398,16.62